In PubChem BioAssay AID540276 (National Center for Advancing Translational Sciences (NCATS), 2011):
In all, about 300,000 compounds went through this assay and about 5,400 (1.8%) were called active. Inconclusive results, whose numbers are uncertain, are shown with a selection of clear calls. Calls follow the shape of the full dose curve; tested in HEK293 cells. Where the call is inconclusive, the potency comes from a doubtful curve fit.

Experiment: qHTS for inhibitors of binding or entry into cells for Marburg Virus
Settings: Marburg virus pseudotyped entry inhibition, cell reporter; activity change, negative = inhibition: at 37.8 µM (top of the series) unless noted
% is scaled to controls: 0 for no effect and ±100 for the full control effect; potency is read from the fitted curve at half-maximal effect.

Row | SMILES | activity change, negative = inhibition | Potency
1 | C/C(CCc1oc2c(Br)cc(Br)cc2c1-c1ccc(C)o1)=N\O | inactive: -12% | 
2 | Cn1cc(C(=O)NCC2COc3ccccc3O2)c(=O)c2cc(S(=O)(=O)N3CCCCC3)ccc21 (stereo not drawn) |  | inconclusive: 29.1 µM [inhibitor, single point]
3 | CCCSc1ccc(C(=O)Nc2ccc(Cl)cc2)cn1 |  | inconclusive: 2.51 µM [activator, partial curve, poor fit]
4 | Cc1cc(C)c(S(=O)(=O)N(C)CC(=O)NC2CCCC2)c(C)c1 | inactive: -4.24% | 
5 | C/C(=N\NC(=O)C(C)Sc1ccccc1)C(C)(C)C (stereo not drawn) | inactive: 1.7% | 
6 | Cc1ccc(C)c(NC(=O)N2CCc3cc(S(=O)(=O)N4CCC(C)CC4)ccc32)c1 | inactive: -26.6% [at 46.1 µM] | 
7 | Cc1cccc(C)c1NC(=O)C1C2C=CC(C2)C1C(=O)O (stereo not drawn) | inactive: -19.9% | 
8 | Cc1sc(NC(=O)C2CCCC2)c(C#N)c1C |  | inconclusive: 35.5 µM [activator, single point]
9 | COc1ccc(CC(=O)Nc2ccc3c(c2)CCC3)cc1 | inactive: 14.9% | 
10 | COc1ccc(N2CCN(C(=O)c3ccc(SC)cc3OC)CC2)cc1 |  | inconclusive: 35.5 µM [inhibitor, single point]
11 | CCCCCC(=O)Nc1ccc(N2CCN(CC)CC2)c(Cl)c1 | inactive: 2.17% | 
12 | COC(=O)c1sc(NC(=O)c2ccc([N+](=O)[O-])o2)c(C#N)c1C | inactive: 6.48% | 
13 | CN(C)c1ccc(NC(=O)CSc2nc3ccccc3c(=O)n2C2CCCCC2)cc1 | inactive: -25.4% | 
14 | Cc1ccc(NC(=O)COc2ccc(Br)cc2CO)cc1 | inactive: 6.37% | 
15 | CCOC(=O)CNC(=O)N1CCC(CCOc2ccccc2)(C(=O)OCC)CC1 | inactive: -22% | 
16 | Cc1nc(SCc2ccccc2)c2oc3ccccc3c2n1 |  | inconclusive: 14.1 µM [inhibitor, partial curve, poor fit]
17 | CCCCn1c(N)c(N(CCOC)C(=O)c2ccc(-c3cccc(C(F)(F)F)c3)o2)c(=O)[nH]c1=O | inactive: -5.05% [at 46.1 µM] | 
18 | CC(C)NC(=S)N/N=C/c1ccc2c(c1)OCCO2 |  | inconclusive: 3.16 µM [inhibitor, single point]
19 | Cn1cccc1/C=C1\CCC/C(=C\c2cccn2C)C1=O |  | inconclusive: 0.231 µM [activator, full curve, poor fit]
20 | CCCc1nn(C)c(C(=O)Nc2ccc(Cl)cc2)c1Cl | inactive: 16.9% | 
21 | CCN1C(=O)/C(=C\C=C2/C=CC=CN2CC)SC1=S | inactive: 2.03% | 
22 | COCCOC(=O)c1c(C)oc2ccc(NS(=O)(=O)c3cccs3)cc12 |  | inconclusive: 3.16 µM [inhibitor, single point]
23 | CC(C)C(=O)Nc1ccc(Oc2ccc3c(c2)C(=O)NC3=O)cc1 | inactive: 19.4% | 
24 | Cc1cc(C(=O)Nc2ccc(S(=O)(=O)N3CCCC3)cc2)no1 | inactive: -15.6% | 

Structures shown so far with a cyano group (two):
Row | SMILES | activity change, negative = inhibition | Potency
8 | Cc1sc(NC(=O)C2CCCC2)c(C#N)c1C |  | inconclusive: 35.5 µM [activator, single point]
12 | COC(=O)c1sc(NC(=O)c2ccc([N+](=O)[O-])o2)c(C#N)c1C | inactive: 6.48% | 

Next structures follow.

Row | SMILES | activity change, negative = inhibition | Potency
25 | CCN1C(=O)[C@H]2[C@H]3[C@H](O)[C@H](O)C/C(=N\NC(=O)OCc4ccccc4)[C@@H]3CC[C@H]2C1=O | inactive: -8.45% [at 14.2 µM] | 
26 | N#Cc1ccc(NC(=O)c2cc(-c3cccc(Cl)c3)on2)cc1 |  | inconclusive: 8.91 µM [activator, partial curve, poor fit]
27 | COc1cc(/C=N/N2CCN(c3ccccc3OC)CC2)ccc1OC(C)=O | inactive: 11.7% | 
28 | COc1cccc(-c2cc(C(=O)Nc3c(C)nn(Cc4ccccc4)c3C)no2)c1 |  | inconclusive: 13 µM [inhibitor, partial curve, poor fit]
29 | CCN(Cc1ccncc1)Cc1nc(-c2ccc(C(=O)OC)cc2)no1 |  | inconclusive: 23.1 µM [inhibitor, partial curve, poor fit]
30 | COc1ccc(C(=O)Nc2ccc(C3CC3(Cl)Cl)cc2)cc1 (stereo not drawn) |  | inconclusive: 10 µM [inhibitor, partial curve, poor fit]
31 | N#Cc1cc(-c2ccccc2)c[nH]c1=O | inactive: -1.29% | 
32 | COCCSc1nnc(NC(=O)C2CC(=O)N(C3CCCC3)C2)s1 (stereo not drawn) | inactive: 3.68% [at 46.1 µM] | 
33 | CCCCN(C)CCCNC(=O)CN1C(=O)CSc2ccc(S(=O)(=O)N3CCOCC3)cc21 |  | inconclusive: 10 µM [inhibitor, partial curve, poor fit]
34 | CCn1ncc(Br)c1C(=O)Nc1ccc(F)c([N+](=O)[O-])c1 |  | inconclusive: 29.1 µM [inhibitor, single point]
35 | CC(C)=CCC(C)(C)C1OCCN1C(=O)c1ccccc1 (stereo not drawn) |  | inconclusive: 23.1 µM [inhibitor, single point]
36 | O=C(Nc1ccc(Nc2ccccc2)cc1)C(Cl)(Cl)Cl | inactive: 2.88% | 
37 | COc1ccc(C(=O)N(c2ccccn2)C2CCCCC2)c(OC)c1 |  | inconclusive: 39.8 µM [inhibitor, partial curve, poor fit]
38 | COc1cc2oc(=O)c(CC(=O)NCCc3ccccc3F)c(C)c2cc1OC |  | inconclusive: 1.41 µM [inhibitor, partial curve, poor fit]
39 | Cc1cc(N2C(=O)C(O)=C(C(=O)c3cccs3)C2c2ccccc2)no1 (stereo not drawn) |  | inconclusive: 2.06 µM [inhibitor, partial curve]
40 | CN(C)S(=O)(=O)c1cccc2c1C(=O)c1ccccc1C2=O | inactive: -9.91% | 
41 | CCn1c(SCc2ccc(C(=O)Nc3nccs3)cc2)nnc1-c1ccc(N)cc1 |  | inconclusive: 35.5 µM [inhibitor, single point]
42 | COc1ccc(F)cc1COc1nc(C)nc2ccccc12 | inactive: -27% [at 46.1 µM] | 
43 | Cc1cc(C(=O)OCC(=O)N(CC(C)C)c2c(N)n(Cc3ccccc3)c(=O)[nH]c2=O)c2ccccc2n1 | inactive: 4.75% | 
44 | Cc1cc(C(C)(C)C)ccc1OCCCCN1CCCC1 |  | inconclusive: 22.4 µM [inhibitor, partial curve, poor fit]
45 | O=C(NC1CCCCC1)C(c1ccco1)N(C(=O)c1csnn1)c1cccc(Cl)c1 (stereo not drawn) |  | inconclusive: 28.2 µM [inhibitor, single point]
46 | Cc1ccc(CNC(=O)C2CCCCN2S(=O)(=O)c2ccccc2)cc1 (stereo not drawn) |  | inconclusive: 11.2 µM [inhibitor, single point]
47 | Cc1ccc(-c2nc3nc(C)cc(N4CCN(c5cccc(C)c5)C(C)C4)n3n2)cc1 (stereo not drawn) | inactive: 26.7% [at 46.1 µM] | 
48 | COc1ccccc1Nc1ncc(C(=O)N2CCN(Cc3ccc(OC)c(OC)c3OC)CC2)c2ccccc12 |  | inconclusive: 35.5 µM [inhibitor, single point]
